According to PMC8890623:
Substitutions are numbered along the chain they refer to. These are yes or no findings as the source states them, for the method shown. In cells and extracts the contact can be indirect. Some results given as binding are weak or reduced against the parent protein; the word gives no strength. Sequences can lack the tags named with a protein.

Experiments:
Assay in all cases: co-IP; vtc4Δ yeast whole cell lysates; 3XFLAG-tagged Top1 captured on anti-Flag M2 agarose beads, 1 hr at 4°C; 50 mM Tris pH 8, 150 mM NaCl, 7 mM EDTA, 5 mM DTT; washes with 0.75% Triton X-100; eluted with 3X-FLAG peptide; blots probed with αFLAG or αHA
[1] = target: T1, yeast Topoisomerase 1 Y727F catalytic mutant, C-terminally 3XFLAG-tagged (S. cerevisiae) (UniProt P04786)
T1 sequence: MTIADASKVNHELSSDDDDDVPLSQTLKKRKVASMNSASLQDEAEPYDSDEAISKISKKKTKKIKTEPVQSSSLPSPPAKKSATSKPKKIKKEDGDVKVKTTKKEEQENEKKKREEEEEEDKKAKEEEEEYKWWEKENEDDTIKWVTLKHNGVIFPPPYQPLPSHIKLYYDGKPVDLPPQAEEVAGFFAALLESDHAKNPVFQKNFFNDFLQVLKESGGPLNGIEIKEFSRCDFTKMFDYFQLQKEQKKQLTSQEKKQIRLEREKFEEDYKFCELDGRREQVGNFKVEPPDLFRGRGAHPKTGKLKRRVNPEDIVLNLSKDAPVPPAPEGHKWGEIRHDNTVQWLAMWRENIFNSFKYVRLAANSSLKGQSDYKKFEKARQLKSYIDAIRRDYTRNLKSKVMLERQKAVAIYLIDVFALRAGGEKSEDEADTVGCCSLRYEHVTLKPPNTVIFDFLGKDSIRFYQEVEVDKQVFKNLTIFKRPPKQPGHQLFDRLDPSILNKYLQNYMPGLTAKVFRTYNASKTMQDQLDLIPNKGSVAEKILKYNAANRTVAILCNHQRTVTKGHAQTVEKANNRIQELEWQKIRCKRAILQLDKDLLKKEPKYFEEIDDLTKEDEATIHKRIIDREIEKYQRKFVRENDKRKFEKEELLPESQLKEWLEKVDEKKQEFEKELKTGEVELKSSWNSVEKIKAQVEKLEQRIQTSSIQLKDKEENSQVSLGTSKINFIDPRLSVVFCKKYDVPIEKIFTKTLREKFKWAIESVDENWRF

[2] = target: T2, yeast Topoisomerase 1 S733E duplex DNA binding mutant, C-terminally 3XFLAG-tagged (S. cerevisiae) (UniProt P04786)
T2 sequence: T1 sequence with F727Y, S733E

[3] = target: T3, yeast Topoisomerase 1 Y740Stop truncation mutant, C-terminally 3XFLAG-tagged (S. cerevisiae) (UniProt P04786)
T3 sequence: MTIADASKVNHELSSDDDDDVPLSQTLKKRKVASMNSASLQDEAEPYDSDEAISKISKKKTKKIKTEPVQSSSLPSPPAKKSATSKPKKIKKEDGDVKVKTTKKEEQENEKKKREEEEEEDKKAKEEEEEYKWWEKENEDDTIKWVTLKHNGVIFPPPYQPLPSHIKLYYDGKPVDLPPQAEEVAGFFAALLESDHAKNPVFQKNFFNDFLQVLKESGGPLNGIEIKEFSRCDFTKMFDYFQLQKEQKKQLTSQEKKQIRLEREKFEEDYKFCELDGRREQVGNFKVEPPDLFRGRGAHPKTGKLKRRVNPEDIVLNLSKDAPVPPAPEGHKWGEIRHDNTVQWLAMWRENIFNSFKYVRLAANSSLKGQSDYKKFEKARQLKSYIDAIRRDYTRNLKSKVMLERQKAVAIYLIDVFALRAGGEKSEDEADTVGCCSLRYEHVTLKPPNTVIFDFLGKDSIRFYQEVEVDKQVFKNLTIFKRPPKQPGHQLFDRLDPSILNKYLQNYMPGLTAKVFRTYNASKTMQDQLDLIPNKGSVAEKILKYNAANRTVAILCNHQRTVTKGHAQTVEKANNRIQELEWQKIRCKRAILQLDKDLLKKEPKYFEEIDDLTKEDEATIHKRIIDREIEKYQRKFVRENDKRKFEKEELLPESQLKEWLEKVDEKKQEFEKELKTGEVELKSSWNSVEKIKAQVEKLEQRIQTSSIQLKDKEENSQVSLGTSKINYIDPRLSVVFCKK

Measured: binding

B1: Nsr1ΔRGG (Nsr1 amino acid residues 1-350), C-terminally 6XHA-tagged (domain or fragment, UniProt P27476 1-350)
chain: MAKTTKVKGNKKEVKASKQAKEEKAKAVSSSSSESSSSSSSSSESESESESESESSSSSSSSDSESSSSSSSDSESEAETKKEESKDSSSSSSDSSSDEEEEEEKEETKKEESKESSSSDSSSSSSSDSESEKEESNDKKRKSEDAEEEEDEESSNKKQKNEETEEPATIFVGRLSWSIDDEWLKKEFEHIGGVIGARVIYERGTDRSRGYGYVDFENKSYAEKAIQEMQGKEIDGRPINCDMSTSKPAGNNDRAKKFGDTPSEPSDTLFLGNLSFNADRDAIFELFAKHGEVVSVRIPTHPETEQPKGFGYVQFSNMEDAKKALDALQGEYIDNRPVRLDFSSPRPNND
binds: all assays above
